Test results published in the supplement of paper PMC10735217.
Structures can show the parent of a compound that is named as a salt. The list shows a part of the results. Repeats in this data set agree poorly, so a single value says little.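 Human kidney-derived cells stably carry a construct in which eight TEAD-binding elements drive luciferase, measured by luminescence in a drug-repurposing library screen. A hit is any compound whose signal exceeds the plate mean by more than five robust Z scores.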

System: HEK293A TEAD-LUC reporter
Assay: TEAD-luciferase reporter activity (YAP activation), robust Z score vs plate; higher = stronger YAP/TEAD activation
Conditions: 24 h

Compound	TEAD-luciferase reporter activity (compound concentration: 200 nM)	TEAD-luciferase reporter activity (compound concentration: 2 uM)	TEAD-luciferase reporter activity (compound concentration: 10 uM)
CS(=O)(=O)c1ccc(-c2cn3ccccc3n2)cc1 [zolimidine]	inactive: 0.76	inactive: 0.602	inactive: 0.733
c1ccc(Cc2nnn[nH]2)c(COc2ccc(OCc3ccc4ccccc4n3)cc2)c1	inactive: -0.155	inactive: -1.95	inactive: -1.89
CCOc1ccc(-c2cccnc2)c(NC(=O)CC(C)N)c1 (stereo unspecified)	inactive: -0.812	inactive: 0.0466	active: 11
CSc1ccc(C(=O)c2cc(CC(=O)O)cc3ccoc23)cc1 [tifurac]	inactive: -1.09	inactive: -1.45	inactive: -0.678
CC(C)(C)C(=O)N1CCC(C(=O)N2CCC(N3Cc4ccccc4C3=O)CC2)CC1	inactive: -0.622	–	inactive: 2.64
Cc1nc(N)nc(N)c1-c1ccc(Cl)c(Cl)c1 [metoprine]	inactive: -2.37	inactive: 0.306	inactive: 0.919
CC/C=C\C/C=C\C/C=C\C/C=C\C/C=C\C/C=C\CCC(=O)O [docosahecaenoic Acid]	–	inactive: -1.45	–
CC/C=C\C/C=C\C/C=C\C/C=C\C/C=C\C/C=C\CCC(=O)O [docosahecaenoic Acid, Nectid]	inactive: 0.0756	–	inactive: -2.67
CCCCCC(=O)O[C@]1(C(C)=O)CC[C@H]2[C@@H]3CCC4=CC(=O)CC[C@]4(C)[C@H]3CC[C@@]21C [hydroxyprogesterone caproate]	–	inactive: -0.199	–
CCCCCC(=O)O[C@]1(C(C)=O)CC[C@H]2[C@@H]3CCC4=CC(=O)CC[C@]4(C)[C@H]3CC[C@@]21C [Hydroxyprogesterone caproate]	inactive: 0.491	–	inactive: -2.46
CC(OC1CCN(C(=O)OC(C)(C)C)CC1)c1nc(-c2ccc(S(C)(=O)=O)c(F)c2)no1 (stereo unspecified)	inactive: -2.1	inactive: -0.217	inactive: 0.359
CC(=O)O[C@@H]1C[C@@H](CO)O[C@H]1n1c(=O)sc2cnc(N)nc21	inactive: -1.24	inactive: -0.722	inactive: 0.809
CCOC(=O)CCS[C@H](CC(=O)OCC)c1ccccc1CCCCCCCCc1ccccc1	inactive: -0.592	inactive: -0.875	inactive: 1.1
CC(=O)N[C@@H](CCCNC(=N)N)C(=O)NC1CSSCC(C(N)=O)NC(=O)[C@H](Cc2c[nH]c3ccccc23)NC(=O)[C@H](CCCNC(=N)N)NC(=O)[C@@H](Cc2ccccc2)NC(=O)[C@H](Cc2cnc[nH]2)NC(=O)[C@@H](C)NC1=O (stereo partly specified) [Setmelanotide]	inactive: 1.04	inactive: 0.157	inactive: 0.385
CCCCC(CC)COC(=O)C(C#N)=C(c1ccccc1)c1ccccc1 (stereo unspecified)	inactive: 2.26	inactive: -0.0876	inactive: -0.391
COc1cc(OC)c(/C=C/S(=O)(=O)Cc2ccc(OC)c(OP(=O)(O)O)c2)c(OC)c1 [Briciclib sodium]	inactive: -1.03	active: 5.06	inactive: 0.931
Cc1cncc(CN2CCC(=C3c4ccc(Cl)cc4CCc4cccnc43)CC2)c1 [rupatadine]	inactive: -0.838	inactive: -0.17	active: 6.19
CN1CCC(=C2c3ccccc3CSc3ccccc32)CC1	inactive: -1.64	inactive: 2.82	inactive: 4.29
C[C@]12CC[C@@H]3c4ccc(O)cc4CC[C@H]3[C@@H]1CCC2=O	–	inactive: 1.95	–
C[C@]12CC[C@@H]3c4ccc(O)cc4CC[C@H]3[C@@H]1CCC2=O [Estrone]	inactive: 2.45	–	inactive: 3.79
Cc1cc(C)n(-c2cccc([C@H](CC(=O)O)CN3CC[C@@H](CCc4ccc5c(n4)NCCC5)C3)c2)n1	inactive: -2.4	inactive: -2.1	inactive: 0.996
CCN(CC)CCNC(=O)c1c(C)[nH]c(/C=C2\C(=O)Nc3ccc(F)cc32)c1C [Sunitinib Malate]	inactive: -3.22	–	inactive: 1.3
CCN(CC)CCNC(=O)c1c(C)[nH]c(/C=C2\C(=O)Nc3ccc(F)cc32)c1C [Sunitinib malate]	–	inactive: 1.95	–
CO[C@H]1/C=C/O[C@@]2(C)Oc3c(C)c(O)c4c(O)c(cc([O-])c4c3C2=O)NC(=O)/C(C)=C\C=C\[C@H](C)[C@H](O)[C@@H](C)[C@@H](O)[C@@H](C)[C@H](OC(C)=O)[C@@H]1C [rifamycin SV]	–	inactive: -1.57	–
CO[C@H]1/C=C/O[C@@]2(C)Oc3c(C)c(O)c4c(O)c(cc([O-])c4c3C2=O)NC(=O)/C(C)=C\C=C\[C@H](C)[C@H](O)[C@@H](C)[C@@H](O)[C@@H](C)[C@H](OC(C)=O)[C@@H]1C [rifamycin SV, Cosmo]	inactive: -0.188	–	inactive: -0.243
COc1cccc2c1OC(CNCCN1C(=O)CC3(CCCC3)CC1=O)CO2 (stereo unspecified)	inactive: 0.995	inactive: -0.955	inactive: 0.472
CN1CCCN=C1/C=C/c1cccs1 [Pyrantel pamoate]	–	inactive: -2.17	–
CN1CCCN=C1/C=C/c1cccs1	inactive: -0.335	–	inactive: 2.28

Some of the entries above in a different format:

| Compound | TEAD-luciferase reporter activity (compound concentration: 200 nM) | TEAD-luciferase reporter activity (compound concentration: 2 uM) | TEAD-luciferase reporter activity (compound concentration: 10 uM) |
| --- | --- | --- | --- |
| CSc1ccc(C(=O)c2cc(CC(=O)O)cc3ccoc23)cc1 [tifurac] | inactive: -1.09 | inactive: -1.45 | inactive: -0.678 |
| CC(C)(C)C(=O)N1CCC(C(=O)N2CCC(N3Cc4ccccc4C3=O)CC2)CC1 | inactive: -0.622 | – | inactive: 2.64 |
| Cc1nc(N)nc(N)c1-c1ccc(Cl)c(Cl)c1 [metoprine] | inactive: -2.37 | inactive: 0.306 | inactive: 0.919 |
| CC/C=C\C/C=C\C/C=C\C/C=C\C/C=C\C/C=C\CCC(=O)O [docosahecaenoic Acid] | – | inactive: -1.45 | – |

Following part.

Compound	TEAD-luciferase reporter activity (compound concentration: 200 nM)	TEAD-luciferase reporter activity (compound concentration: 2 uM)	TEAD-luciferase reporter activity (compound concentration: 10 uM)
COc1ccc(C(=O)N2CC3(Cc4ccccc4N(C(C)=O)C3)C2)cc1	inactive: 0.599	–	inactive: 4.41
CC1C(N)CN1c1c(F)cc2c(=O)c(C(=O)O)cn(C3CC3)c2c1Cl (stereo unspecified)	inactive: 0.699	inactive: -1.09	inactive: 0.356
Cc1cc(-c2ccn3c(-c4ccc(CC(=O)Nc5cccc(C(F)(F)F)c5)c(F)c4)cnc3c2)ccn1	inactive: -0.386	inactive: -2.82	inactive: 0.319
COc1ccc(C(=O)Nc2ccc(S(=O)(=O)NC(CC#CCN3CCOCC3)C(=O)O)cc2)cc1 (stereo unspecified)	inactive: -1.48	inactive: -0.376	inactive: 2.83
COc1cc([S+](C)[O-])ccc1-c1nc2cnccc2[nH]1 (stereo unspecified) [Isomazole hydrochloride]	inactive: -0.6	inactive: 0.879	inactive: 0.181
CNCCC1=Cc2ccccc2N(C)c2ccccc21	inactive: -0.0409	inactive: -0.963	inactive: -0.0817
OC[C@H]1OC(O)C[C@@H](O)[C@@H]1O (stereo partly specified) [2-Deoxyglucose]	inactive: 1.3	inactive: -1.76	inactive: -0.129
Cc1c2cc[n+](C)cc2c(C)c2c1[nH]c1ccc(O)cc12 [Elliptinium acetate]	inactive: -2.03	inactive: 0.345	inactive: -1.01
COc1cc(Nc2nc3ccccc3nc2NS(=O)(=O)c2ccc(NC(=O)c3ccc(C)c(OC)c3)cc2)cc(OC)c1	–	inactive: 1.07	–
CNC(=O)[C@H](Cc1c[nH]c2ccccc12)NC(=O)[C@@H](CC(=O)NO)CC(C)C [Ilomastat]	–	inactive: -0.753	–
CNC(=O)[C@H](Cc1c[nH]c2ccccc12)NC(=O)[C@@H](CC(=O)NO)CC(C)C	inactive: -1.54	–	inactive: 3.76
CC(=O)SCCC(=O)N1[C@@H](C)CCC[C@H]1C(=O)O [Metiapril]	inactive: -2.31	inactive: -0.873	inactive: -1.4
C1=CCC2(CC1)COC(c1ccco1)OC2 (stereo unspecified) [Ulinastatin]	inactive: -1.01	inactive: 0.656	inactive: -1.23
CN1[C@@H]2CCC[C@H]1C[C@@H](NC(=O)c1nn(C)c3ccccc13)C2 [Granisetron hydrochloride]	–	inactive: -2.07	–
CN1[C@@H]2CCC[C@H]1C[C@@H](NC(=O)c1nn(C)c3ccccc13)C2 [Granisetron??Hydrochloride]	inactive: -2.11	–	–
C[C@@H](NC(=O)[C@H]1C[C@]1(C)c1ccc(C(F)(F)F)cc1)c1cc(F)c(NS(C)(=O)=O)c(F)c1	inactive: 0.25	inactive: -0.439	inactive: -0.134
O=c1cc[nH]c(=O)[nH]1	inactive: -1.17	–	inactive: -0.222
O=c1cc[nH]c(=O)[nH]1 [Uracil]	–	inactive: -1.28	–
CC(C)CCN1CCC2(C1)C(=O)N(c1ccccc1)c1ccccc12 (stereo unspecified)	inactive: -3.27	–	inactive: -0.686
O=C(Nc1ccccc1)OCC(CN1CCCCC1)OC(=O)Nc1ccccc1 (stereo unspecified)	inactive: -1.9	inactive: 2.61	inactive: 0.846
Clc1ccc(CCC(Cn2ccnc2)Sc2c(Cl)cccc2Cl)cc1 (stereo unspecified) [butoconazole]	inactive: 1.14	inactive: -0.983	inactive: 0.57
C=C(c1c(Cl)ccc(Cl)c1OCC(O)CNC(C)C)n1ccnc1 (stereo unspecified)	inactive: 0.0974	inactive: 2.01	inactive: 0.247
NNc1nnc(NN)c2ccccc12	inactive: -2.26	inactive: -3.27	inactive: -1.78
CCCCn1c(=O)c(NC(=O)Nc2c(C(C)C)cc(N)cc2C(C)C)c(-c2cccc(OCCCO)c2)c2cccnc21	inactive: 0.0881	inactive: -1.13	–
CCCCCCCCCCCCCCCC(=O)OCC(COC(=O)CCCCCCCCCCCCCCC)(COC(=O)CCCCCCCCCCCCCCC)NC(=O)CNC(=O)CC[C@H](NC(=O)c1ccc(N(C)Cc2cnc3nc(N)nc(N)c3n2)cc1)C(=O)O [MTX-gamma-GTP-3]	inactive: -1.56	inactive: -0.571	inactive: 0.0218
NC1=NC(=O)N([C@@H]2O[C@H](CO)[C@@H](O)[C@H]2O)CN1	inactive: 0.132	inactive: 0.575	inactive: -1.77
CCCCCCC(=O)OCC(COC(=O)CCCCCC)OC(=O)CCCCCC [triheptanoin, Ultragenyx]	inactive: -1.85	inactive: 4.36	inactive: 0.54
